Data taken from PMC10485026.
These are yes or no findings as the source states them, for the method shown. For some assays here: In cells and extracts the contact can be indirect. Some results given as binding are weak or reduced against the parent protein; the word gives no strength. Sequences can lack the tags named with a protein.

T1: GST-NXF1:p15 protein complex (UniProt Q9UBU9)
T1 sequence 1: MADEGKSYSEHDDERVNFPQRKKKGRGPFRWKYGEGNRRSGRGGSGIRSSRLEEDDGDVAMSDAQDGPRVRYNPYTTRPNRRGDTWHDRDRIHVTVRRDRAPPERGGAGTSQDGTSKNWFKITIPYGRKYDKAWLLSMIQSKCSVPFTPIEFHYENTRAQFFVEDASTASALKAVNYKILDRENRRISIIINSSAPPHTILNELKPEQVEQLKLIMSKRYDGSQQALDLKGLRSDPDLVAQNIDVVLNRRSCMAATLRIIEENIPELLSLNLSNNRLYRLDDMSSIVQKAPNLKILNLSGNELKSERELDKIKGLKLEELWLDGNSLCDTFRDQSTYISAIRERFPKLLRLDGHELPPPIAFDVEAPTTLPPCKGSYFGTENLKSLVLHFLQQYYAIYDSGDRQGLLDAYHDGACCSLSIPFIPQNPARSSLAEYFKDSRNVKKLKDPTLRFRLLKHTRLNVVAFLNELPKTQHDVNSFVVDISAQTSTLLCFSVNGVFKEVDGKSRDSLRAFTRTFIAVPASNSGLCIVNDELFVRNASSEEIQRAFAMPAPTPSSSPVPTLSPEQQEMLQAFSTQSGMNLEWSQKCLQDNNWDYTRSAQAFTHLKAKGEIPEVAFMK
T1 sequence 2: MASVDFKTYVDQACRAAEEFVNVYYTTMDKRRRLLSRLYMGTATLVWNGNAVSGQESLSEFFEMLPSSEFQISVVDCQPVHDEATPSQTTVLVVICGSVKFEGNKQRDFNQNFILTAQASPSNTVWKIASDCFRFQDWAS


Tests used:
[1] = biological target: T1, GST-NXF1:p15 protein complex; assay: pull-down; GST-NXF1:p15 immobilised on glutathione-coated sepharose beads; 35S-radiolabelled proteins translated in reticulocyte lysate; RB-100 buffer (25 mM HEPES pH 7.5, 100 mM potassium acetate, 10 mM MgCl2, 1 mM DTT, 10% glycerol, 0.5% Triton X-100), RNase A 20 ng/μl, 4 °C, 1 h; PhosphoImaging; only the target purified
[2] = biological target: T1, GST-NXF1:p15 protein complex; assay: pull-down; GST-NXF1:p15 immobilised on glutathione-coated sepharose beads; 25 μg purified recombinant 6His-tagged PGC-1α domains from E. coli; RB-100 buffer, RNase-treated, 4 °C, 1 h; detection by anti-6xHis western blot; both purified

Row | binding [1] | binding [2] | Binder
1 | binds | – | 35S-radiolabelled PGC-1α RS domain (aa565–633), synthesised in rabbit reticulocytes (domain or fragment, UniProt Q9UBK2 565-633, 35S-methionine radiolabelled) MRSRSRSFSRHRSCSRSPYSRSRSRSPGSRSSSRSCYYYESSHYRHRTHRNSPLYVRSRSRSPYSRRPR
2 | – | binds | GB1-6His-tagged PGC-1α RS domain (aa565–633), bacterially expressed and stringently purified (domain or fragment, UniProt Q9UBK2 565-633) MRSRSRSFSRHRSCSRSPYSRSRSRSPGSRSSSRSCYYYESSHYRHRTHRNSPLYVRSRSRSPYSRRPR
